In PMC4929490:
Construct, isoform or probe ends are uncertain for at least one entry. For some assays here: A negative result means that nothing was seen under these conditions.

Key:
[1] = molecular target: GST-TaRIM1 (Triticum aestivum (line CI12633)) (UniProt A0A182BBB2); assay: EMSA; conditions: ~2 ug protein in binding buffer (composition, salt and pH not given), on ice 6 h; 8% polyacrylamide gel, 100 V 30 min, ethidium bromide stain; recombinant protein; protein details: N-terminal GST (pGEX-4T-1)
[2] = tested on: GST; assay: EMSA; conditions: ~2 ug protein in binding buffer (composition, salt and pH not given), on ice 6 h; 8% polyacrylamide gel, 100 V 30 min, ethidium bromide stain; recombinant protein

Sequence | binding result [1] | binding result [2]
ATACCAGTCCCCAACGGCTAGCCAGTCCCCAACGGCTAGTTTAACC (double strand) [RT1] | binds | 
AGTCGACCCACCTACCGCGGATCCTCGACCCACCTACCGTCGATC (double strand) [ACI (AC)] |  | no binding
